In publication PMC10147683:
Results are given in words; binding and its absence hold for the method and conditions named. Binding seen in cells or lysates may run through a third protein. Some results given as binding are weak or reduced against the parent protein; the word gives no strength. One block for each molecule: values may come before it.

The chains behind the UniProt entries cited, without tags or fusion partners.
UniProt P18615: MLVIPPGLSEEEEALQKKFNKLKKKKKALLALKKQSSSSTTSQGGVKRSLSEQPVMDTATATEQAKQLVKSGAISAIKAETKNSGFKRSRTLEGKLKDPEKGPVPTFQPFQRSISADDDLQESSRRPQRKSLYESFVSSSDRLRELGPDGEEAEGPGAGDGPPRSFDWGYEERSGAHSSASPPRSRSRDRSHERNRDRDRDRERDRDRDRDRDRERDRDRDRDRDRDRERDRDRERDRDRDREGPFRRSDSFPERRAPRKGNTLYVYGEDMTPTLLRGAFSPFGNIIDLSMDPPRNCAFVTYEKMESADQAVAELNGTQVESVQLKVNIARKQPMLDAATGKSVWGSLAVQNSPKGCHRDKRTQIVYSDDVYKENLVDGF
UniProt P48436: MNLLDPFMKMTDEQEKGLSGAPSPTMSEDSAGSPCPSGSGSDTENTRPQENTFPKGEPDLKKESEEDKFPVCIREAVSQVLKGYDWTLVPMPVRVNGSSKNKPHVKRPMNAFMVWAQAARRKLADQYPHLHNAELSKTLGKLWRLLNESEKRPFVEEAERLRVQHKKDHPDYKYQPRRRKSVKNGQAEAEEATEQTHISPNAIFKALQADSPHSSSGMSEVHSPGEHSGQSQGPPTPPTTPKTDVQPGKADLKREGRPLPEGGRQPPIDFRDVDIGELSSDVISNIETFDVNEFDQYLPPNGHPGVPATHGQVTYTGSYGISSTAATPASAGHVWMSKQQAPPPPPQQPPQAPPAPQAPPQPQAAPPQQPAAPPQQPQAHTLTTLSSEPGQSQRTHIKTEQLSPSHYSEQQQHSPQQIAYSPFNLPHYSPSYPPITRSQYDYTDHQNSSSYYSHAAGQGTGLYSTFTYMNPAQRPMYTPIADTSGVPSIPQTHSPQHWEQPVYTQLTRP

Columns and labels:
[1] = biological target: NELF-E (negative elongation factor subunit E) (human (endogenous in MCF7ras+SS)) (UniProt P18615); test: co-IP; NELF-E antibody (Abcam ab170104) IP from nuclear extracts of MCF7ras+SS cells treated with Dox for 72 h; protein G Dynabeads, overnight 4 °C, five washes in BC200 (200 mM KCl, 0.1% NP-40); western blot; normal rabbit IgG as control
[2] = biological target: NELF-E (endogenous in BT-549) (human (endogenous in BT-549)) (UniProt P18615); test: co-IP; BT-549 cells with endogenous levels of SOX9 and SLUG (Supplementary Fig. 7b); which protein was precipitated is not given

binding [1]: binds
Molecule: SOX9 (doxycycline-induced in MCF7ras+SS) (from UniProt P48436 1-509)

binding [2]: binds
Molecule: SOX9 (endogenous in BT-549) (from UniProt P48436 1-509)

binding [2]: binds
B1: SLUG (endogenous in BT-549) (protein, UniProt O43623 1-268)
chain: MPRSFLVKKHFNASKKPNYSELDTHTVIISPYLYESYSMPVIPQPEILSSGAYSPITVWTTAAPFHAQLPNGLSPLSGYSSSLGRVSPPPPSDTSSKDHSGSESPISDEEERLQSKLSDPHAIEAEKFQCNLCNKTYSTFSGLAKHKQLHCDAQSRKSFSCKYCDKEYVSLGALKMHIRTHTLPCVCKICGKAFSRPWLLQGHIRTHTGEKPFSCPHCNRAFADRSNLRAHLQTHSDVKKYQCKNCSKTFSRMSLLHKHEESGCCVAH

binding [1]: binds
B2: SLUG (doxycycline-induced in MCF7ras+SS) (protein, UniProt O43623 1-268)
chain: B1 chain
